Results deposited as PubChem BioAssay AID504774 (Drosophila RNAi Screening Center, 2011).

- Purpose: 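Fly genes whose loss alters survival after alkylation damage to DNA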 (primary screen)
- Cell system: Drosophila Kc167 cells
- Reagent: long dsRNA against Drosophila genes, about 0.25 µg dsRNA per well
- Duration: about 6 days: 3 days knock-down, then 3 days with or without MMS
- Challenge: methyl methanesulphonate 0.004% (w/v) for 3 days after knock-down
- Measured: 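ATP-dependent luminescence as a measure of live cells in MMS-exposed wells, quantile normalised within each plate, with replicate values also given as a mean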
- Direction: mean viability with MMS and viability with MMS: higher = more surviving cells after MMS
The deposit covers about 23,000 reagents; shown is an unselected part of those that have a named target and a result. 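Values are quantile-normalised luminescence on an arbitrary scale; higher means more cells surviving MMS.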 The numbers tell different reagents against one gene apart. Names joined by + are all predicted targets of the reagent. Reagent sequences are not shown.

gene knocked down	dsRNA no.	mean viability with MMS	viability with MMS, replicate 1	viability with MMS, replicate 2
CG15406	1	3.64e6	4.16e6	4.05e6
Pen (Pendulin)	1	3.57e6	4.06e6	4.05e6
BBS5 (Bardet-Biedl syndrome 5)	1	3.41e6	3.89e6	3.80e6
Parp16 (Poly(ADP-ribose) polymerase 16)	1	3.60e6	4.11e6	4.03e6
MED31 (Mediator complex subunit 31)	1	3.16e6	3.65e6	3.62e6
boca	1	3.49e6	3.99e6	3.95e6
DIP-delta (Dpr-interacting protein delta)	1	3.50e6	3.96e6	3.98e6
DIP-delta (Dpr-interacting protein delta)	2	3.70e6	4.30e6	4.09e6
betaTub85D (beta-Tubulin at 85D)	1	3.43e6	3.93e6	3.89e6
CG14053	1	3.49e6	4.06e6	3.85e6
Mics1 (Mitochondrial morphology and cristae structure 1)	1	3.81e6	4.30e6	4.25e6
Cpr49Ag (Cuticular protein 49Ag)	1	3.46e6	3.95e6	3.85e6
PsGEF (Protostome-specific GEF)	1	3.40e6	3.77e6	3.95e6
CG8321	1	3.76e6	4.25e6	4.25e6
Prosalpha1R + Prosalpha1	1	3.29e6	3.77e6	3.70e6
CG10211	1	3.19e6	3.64e6	3.68e6
Osi6 (Osiris 6)	1	3.47e6	3.97e6	3.93e6
CG2577	1	3.28e6	3.82e6	3.71e6
CG2577	2	3.54e6	4.06e6	4.00e6
GATAe	1	3.45e6	3.90e6	3.93e6
GATAe	2	3.49e6	3.98e6	3.98e6
CG5504	1	3.63e6	3.90e6	4.28e6
CG11977	1	3.50e6	3.97e6	3.98e6
CG13287	1	1.57e6	3.60e6	
CG12134	1	3.55e6	4.04e6	4.00e6
CG32847	1	3.47e6	4.00e6	3.93e6
Sms (Spermine synthase)	1	3.42e6	3.85e6	3.87e6
CG10959	1	3.04e6	3.81e6	4.31e6
Mtl (Mig-2-like)	1	3.60e6	4.07e6	4.11e6
CG6805	1	3.48e6	3.94e6	3.94e6
RpL18A (Ribosomal protein L18A)	1	2.98e6	3.55e6	3.55e6
Cpr78Cb (Cuticular protein 78Cb)	1	3.53e6	4.02e6	3.97e6

Targets above whose gene name starts with G or g:
gene knocked down	dsRNA no.	mean viability with MMS	viability with MMS, replicate 1	viability with MMS, replicate 2
GATAe	1	3.45e6	3.90e6	3.93e6
GATAe	2	3.49e6	3.98e6	3.98e6

The listing continues.
gene knocked down	dsRNA no.	mean viability with MMS	viability with MMS, replicate 1	viability with MMS, replicate 2
uex (unextended)	1	2.38e6	4.00e6	4.01e6
uex (unextended)	2	2.33e6	3.97e6	3.81e6
CR14117 (pseudo)	1	3.54e6	4.06e6	3.98e6
CG12728	1	3.61e6	3.98e6	3.94e6
Cdc50 (Cell division cycle 50)	1	3.79e6	4.19e6	4.26e6
CG34297	1	3.64e6	4.00e6	4.21e6
Dus4 (Dihydrouridine synthase 4)	1	3.56e6	3.97e6	4.12e6
CG9192	1	3.55e6	4.08e6	3.95e6
WASp	1	3.53e6	3.90e6	4.08e6
bt (bent)	1	3.54e6	4.14e6	3.91e6
bt (bent)	2	3.55e6	4.15e6	3.91e6
g (garnet)	1	3.39e6	3.87e6	3.84e6
CG12691	1	3.72e6	4.07e6	4.37e6
Gnmt (Glycine N-methyltransferase)	1	3.52e6	3.98e6	4.01e6
PH4alphaEFB (prolyl-4-hydroxylase-alpha EFB)	1	3.73e6	4.18e6	4.25e6
PH4alphaEFB (prolyl-4-hydroxylase-alpha EFB)	2	3.52e6	4.02e6	3.94e6
Fer3HCH (Ferritin 3 heavy chain homologue)	1	3.62e6	4.13e6	4.06e6
CG34225	1	3.51e6	4.01e6	3.96e6
sif (still life)	1	3.61e6	4.12e6	4.07e6
sif (still life)	2	3.50e6	4.18e6	3.77e6
sif (still life)	3	3.65e6	4.20e6	4.01e6
sif (still life)	4	3.46e6	4.07e6	3.83e6
CG42260	1	3.83e6	4.42e6	4.28e6
CG42260	2	3.71e6	4.29e6	4.08e6
CG42260	3	3.77e6	4.31e6	4.18e6
eIF3i (eukaryotic translation initiation factor 3 subunit i)	1	2.57e6	3.02e6	2.84e6
CG13640	1	3.43e6	3.89e6	3.83e6
CG13667	1	3.62e6	4.07e6	4.16e6
RpS10b (Ribosomal protein S10b)	1	3.51e6	3.97e6	4.01e6
vanin-like	1	3.51e6	4.01e6	3.97e6
FANCI (Fanconi anemia complementation group I)	1	3.61e6	4.08e6	4.06e6
CG8531	1	3.55e6	3.94e6	4.13e6
lic (licorne)	1	3.61e6	4.38e6	3.80e6
HP1e (Heterochromatin Protein 1e)	1	3.42e6	3.91e6	3.89e6
CG32808	1	3.79e6	4.35e6	4.09e6
Brf (Brf RNA polymerase III subunit)	1	3.42e6	3.94e6	3.80e6
Brf (Brf RNA polymerase III subunit)	2	3.36e6	3.80e6	3.79e6
Brf (Brf RNA polymerase III subunit)	3	3.38e6	3.85e6	3.79e6
